Experimental data taken from US20230359121A1, “LITHOGRAPHIC PRINTING PLATE PRECURSOR, METHOD OF PREPARING LITHOGRAPHIC PRINTING PLATE, AND LITHOGRAPHIC PRINTING METHOD” (FUJIFILM Corporation, priority 2022, published 2023).
“And” between values parts separate entries of the source, which are not always exact repeats. Equal entries are not always repeated.

What was measured:
[1] = Ring-opening rate and λmax of chromogenic agent; format: physicochemical; conditions: for ring-opening rate: 1 molar equivalent of acid added; for maximal absorption wavelength (λmax): colored substance, visible region 380 nm to 750 nm
[2] = Molar absorption coefficient ε of colored substance generated from chromogenic agent; format: physicochemical; conditions: at maximal absorption wavelength

SMILES	ring-opening rate [1] [%]	maximal absorption wavelength (λmax) [1]	ε (molar absorption coefficient of colored substance) [2]
COc1ccc(N(c2ccc3c(c2)Oc2cc(N(c4ccc(OC)cc4)c4ccc(OC)cc4C)ccc2C32OC(=O)c3ccccc32)c2ccc(OC)cc2C)cc1 [Example C-1]	75	590 nm	68,000
CCN(CCC(C)C)c1ccc2c(c1)Oc1cc(C)c(Nc3ccccc3)cc1C21OC(=O)c2ccccc21 (stereo not drawn) [Example C-2]	76	450 nm and 590 nm	32,000 and 20,000
CCCCn1c(C)c(C2(c3ccc(N(C)C)cc3)OC(=O)c3cc(N(C)C)ccc32)c2ccccc21 (stereo not drawn) [Example C-3]	58	590 nm	74,000
CCOc1ccc(N(c2ccc3c(c2)Oc2cc(N(c4ccc(OCC)cc4)c4ccc(OC)cc4C)ccc2C32OC(=O)c3ccccc32)c2ccc(OC)cc2C)cc1 [Example C-4]	68	592 nm	68,000
